From the supplement of paper PMC10849652
Some of the results follow.

The chains behind the UniProt entries cited, without tags or fusion partners. Where a name states a change or a piece, a line headed by the entry shows the natural chain unless it says otherwise.
UniProt P42167: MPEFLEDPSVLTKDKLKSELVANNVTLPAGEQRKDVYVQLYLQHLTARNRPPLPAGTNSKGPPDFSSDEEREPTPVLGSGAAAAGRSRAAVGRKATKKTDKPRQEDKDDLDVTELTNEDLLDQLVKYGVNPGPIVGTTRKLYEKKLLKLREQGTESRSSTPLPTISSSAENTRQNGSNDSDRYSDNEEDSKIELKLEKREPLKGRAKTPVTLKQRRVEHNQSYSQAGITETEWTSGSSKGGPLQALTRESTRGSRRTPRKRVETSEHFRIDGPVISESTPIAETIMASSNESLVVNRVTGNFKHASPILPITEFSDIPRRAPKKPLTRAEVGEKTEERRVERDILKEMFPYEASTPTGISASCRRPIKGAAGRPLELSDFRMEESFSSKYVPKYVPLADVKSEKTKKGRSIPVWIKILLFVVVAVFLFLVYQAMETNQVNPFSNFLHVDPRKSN
UniProt Q9BRN9: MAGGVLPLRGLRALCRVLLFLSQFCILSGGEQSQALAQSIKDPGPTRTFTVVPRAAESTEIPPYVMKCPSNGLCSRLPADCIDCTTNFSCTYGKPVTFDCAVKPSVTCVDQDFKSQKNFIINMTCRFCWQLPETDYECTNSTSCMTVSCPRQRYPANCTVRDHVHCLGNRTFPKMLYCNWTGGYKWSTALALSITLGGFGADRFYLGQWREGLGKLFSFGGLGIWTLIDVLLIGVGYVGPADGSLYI
UniProt Q9NVH6: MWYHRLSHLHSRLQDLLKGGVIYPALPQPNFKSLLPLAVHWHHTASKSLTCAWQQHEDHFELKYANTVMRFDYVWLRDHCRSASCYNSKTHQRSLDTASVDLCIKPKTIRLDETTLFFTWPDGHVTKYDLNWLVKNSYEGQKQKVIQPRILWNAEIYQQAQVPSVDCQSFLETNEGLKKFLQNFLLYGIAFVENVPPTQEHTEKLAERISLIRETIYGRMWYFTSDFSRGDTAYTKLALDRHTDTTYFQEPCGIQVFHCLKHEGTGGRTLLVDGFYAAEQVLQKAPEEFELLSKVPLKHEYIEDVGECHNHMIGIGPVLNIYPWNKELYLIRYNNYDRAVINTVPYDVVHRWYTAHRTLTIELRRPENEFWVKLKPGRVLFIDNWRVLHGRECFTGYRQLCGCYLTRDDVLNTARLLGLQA
UniProt Q12893: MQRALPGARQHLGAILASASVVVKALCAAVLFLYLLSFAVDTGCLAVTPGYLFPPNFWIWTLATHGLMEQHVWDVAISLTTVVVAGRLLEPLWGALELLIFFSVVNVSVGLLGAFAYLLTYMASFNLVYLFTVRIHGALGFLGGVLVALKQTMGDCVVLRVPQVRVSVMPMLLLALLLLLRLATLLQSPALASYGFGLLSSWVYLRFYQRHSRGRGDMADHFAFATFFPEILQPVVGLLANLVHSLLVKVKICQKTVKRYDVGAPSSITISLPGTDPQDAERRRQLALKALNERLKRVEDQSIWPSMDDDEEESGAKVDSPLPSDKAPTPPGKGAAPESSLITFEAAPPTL
UniProt Q9NZR1: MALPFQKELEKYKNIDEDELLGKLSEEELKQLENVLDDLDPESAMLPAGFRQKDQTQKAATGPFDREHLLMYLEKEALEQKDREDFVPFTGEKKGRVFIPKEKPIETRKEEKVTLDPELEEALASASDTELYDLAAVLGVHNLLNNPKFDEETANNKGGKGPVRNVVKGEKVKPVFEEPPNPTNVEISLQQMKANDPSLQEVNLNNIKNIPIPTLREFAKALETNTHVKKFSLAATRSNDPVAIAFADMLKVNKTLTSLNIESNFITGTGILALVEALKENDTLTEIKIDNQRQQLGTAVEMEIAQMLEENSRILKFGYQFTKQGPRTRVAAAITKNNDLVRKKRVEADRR
UniProt P57088: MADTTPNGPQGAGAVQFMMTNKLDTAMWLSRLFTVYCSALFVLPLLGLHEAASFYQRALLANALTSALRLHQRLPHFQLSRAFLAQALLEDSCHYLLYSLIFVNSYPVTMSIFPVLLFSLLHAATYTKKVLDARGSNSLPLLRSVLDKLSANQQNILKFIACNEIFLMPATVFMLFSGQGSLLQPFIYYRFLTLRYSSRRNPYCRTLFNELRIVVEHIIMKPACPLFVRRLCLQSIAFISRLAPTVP
UniProt Q96JJ7: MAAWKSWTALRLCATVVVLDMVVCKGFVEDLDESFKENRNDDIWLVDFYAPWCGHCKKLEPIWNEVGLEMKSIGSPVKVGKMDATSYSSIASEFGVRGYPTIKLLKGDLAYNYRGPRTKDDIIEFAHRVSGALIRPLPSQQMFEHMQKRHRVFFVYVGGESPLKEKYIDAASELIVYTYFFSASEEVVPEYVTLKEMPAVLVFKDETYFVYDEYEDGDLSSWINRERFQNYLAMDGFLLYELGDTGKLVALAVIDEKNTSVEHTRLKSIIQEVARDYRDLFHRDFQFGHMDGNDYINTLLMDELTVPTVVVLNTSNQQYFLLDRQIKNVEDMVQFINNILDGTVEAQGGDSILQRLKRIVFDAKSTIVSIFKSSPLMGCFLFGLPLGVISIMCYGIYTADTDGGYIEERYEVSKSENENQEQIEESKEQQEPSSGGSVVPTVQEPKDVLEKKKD
UniProt Q96SK2: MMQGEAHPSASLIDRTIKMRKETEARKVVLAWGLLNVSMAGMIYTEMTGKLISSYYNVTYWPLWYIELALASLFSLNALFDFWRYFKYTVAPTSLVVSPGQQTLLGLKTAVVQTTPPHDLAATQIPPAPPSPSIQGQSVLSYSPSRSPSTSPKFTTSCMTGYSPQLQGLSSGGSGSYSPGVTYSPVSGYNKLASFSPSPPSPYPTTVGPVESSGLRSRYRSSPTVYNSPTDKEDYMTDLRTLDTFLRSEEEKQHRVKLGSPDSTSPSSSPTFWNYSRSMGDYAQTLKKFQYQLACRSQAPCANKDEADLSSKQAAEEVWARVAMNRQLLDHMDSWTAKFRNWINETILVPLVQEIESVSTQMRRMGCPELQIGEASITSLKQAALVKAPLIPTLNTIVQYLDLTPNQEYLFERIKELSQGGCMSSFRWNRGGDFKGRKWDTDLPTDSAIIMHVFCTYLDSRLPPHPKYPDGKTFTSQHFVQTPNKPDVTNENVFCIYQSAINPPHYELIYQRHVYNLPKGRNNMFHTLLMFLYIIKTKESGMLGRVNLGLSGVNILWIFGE
UniProt Q96MH6: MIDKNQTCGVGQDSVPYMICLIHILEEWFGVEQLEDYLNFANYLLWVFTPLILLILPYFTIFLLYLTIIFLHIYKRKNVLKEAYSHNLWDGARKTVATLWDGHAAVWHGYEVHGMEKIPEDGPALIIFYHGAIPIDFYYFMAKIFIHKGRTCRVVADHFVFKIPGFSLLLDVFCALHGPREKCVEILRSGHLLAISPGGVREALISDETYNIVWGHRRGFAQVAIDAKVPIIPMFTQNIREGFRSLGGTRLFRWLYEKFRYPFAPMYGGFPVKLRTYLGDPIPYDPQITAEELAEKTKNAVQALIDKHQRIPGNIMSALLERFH
UniProt Q9Y320, whole entry, looked up: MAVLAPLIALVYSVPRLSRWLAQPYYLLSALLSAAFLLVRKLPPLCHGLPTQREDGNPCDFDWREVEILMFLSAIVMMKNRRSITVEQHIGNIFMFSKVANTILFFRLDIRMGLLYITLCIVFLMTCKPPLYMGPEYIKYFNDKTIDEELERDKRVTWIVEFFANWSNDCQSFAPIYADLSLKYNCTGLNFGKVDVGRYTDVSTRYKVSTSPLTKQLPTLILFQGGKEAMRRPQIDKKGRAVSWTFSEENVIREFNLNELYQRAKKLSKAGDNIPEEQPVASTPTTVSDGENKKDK
UniProt Q4ZIN3: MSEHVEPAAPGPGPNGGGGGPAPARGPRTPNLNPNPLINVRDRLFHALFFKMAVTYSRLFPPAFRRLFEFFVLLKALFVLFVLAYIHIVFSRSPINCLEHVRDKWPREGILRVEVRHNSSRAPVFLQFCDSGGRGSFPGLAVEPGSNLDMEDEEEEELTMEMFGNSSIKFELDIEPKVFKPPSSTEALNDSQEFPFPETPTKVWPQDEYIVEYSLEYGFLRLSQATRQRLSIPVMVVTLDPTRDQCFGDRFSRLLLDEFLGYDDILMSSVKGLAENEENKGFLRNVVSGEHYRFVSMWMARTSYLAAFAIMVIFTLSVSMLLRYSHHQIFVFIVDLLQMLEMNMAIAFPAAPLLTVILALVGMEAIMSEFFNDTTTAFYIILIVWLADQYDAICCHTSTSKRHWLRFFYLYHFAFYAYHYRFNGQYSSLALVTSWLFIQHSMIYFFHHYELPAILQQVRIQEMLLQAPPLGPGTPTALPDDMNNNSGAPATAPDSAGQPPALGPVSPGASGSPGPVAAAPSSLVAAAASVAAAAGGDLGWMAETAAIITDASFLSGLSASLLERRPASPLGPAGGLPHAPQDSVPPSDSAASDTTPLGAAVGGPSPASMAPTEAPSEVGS
UniProt Q9Y3A6: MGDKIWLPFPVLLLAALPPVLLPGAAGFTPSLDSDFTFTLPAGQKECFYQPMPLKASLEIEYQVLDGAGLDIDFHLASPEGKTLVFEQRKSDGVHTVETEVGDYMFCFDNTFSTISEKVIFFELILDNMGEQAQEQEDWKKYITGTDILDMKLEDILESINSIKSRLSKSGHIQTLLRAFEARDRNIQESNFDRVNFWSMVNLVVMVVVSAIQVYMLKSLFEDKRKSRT
UniProt Q9BTV4: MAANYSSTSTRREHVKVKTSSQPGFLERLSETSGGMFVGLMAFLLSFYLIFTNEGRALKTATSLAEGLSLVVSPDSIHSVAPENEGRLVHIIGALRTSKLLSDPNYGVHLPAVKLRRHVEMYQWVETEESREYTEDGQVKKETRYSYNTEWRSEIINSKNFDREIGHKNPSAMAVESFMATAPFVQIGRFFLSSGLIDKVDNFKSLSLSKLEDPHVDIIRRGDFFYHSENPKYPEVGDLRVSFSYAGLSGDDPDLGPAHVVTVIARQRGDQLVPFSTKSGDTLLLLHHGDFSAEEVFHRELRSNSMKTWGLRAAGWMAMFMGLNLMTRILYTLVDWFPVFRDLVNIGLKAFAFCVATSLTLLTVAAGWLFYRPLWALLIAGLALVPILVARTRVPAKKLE
UniProt Q9UM00: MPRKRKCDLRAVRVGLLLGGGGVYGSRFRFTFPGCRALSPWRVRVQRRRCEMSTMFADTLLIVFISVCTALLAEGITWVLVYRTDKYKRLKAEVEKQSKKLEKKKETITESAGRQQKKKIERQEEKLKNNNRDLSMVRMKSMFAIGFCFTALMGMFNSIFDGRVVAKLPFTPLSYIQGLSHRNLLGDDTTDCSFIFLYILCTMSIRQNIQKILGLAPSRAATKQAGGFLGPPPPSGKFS
UniProt A5PLL7: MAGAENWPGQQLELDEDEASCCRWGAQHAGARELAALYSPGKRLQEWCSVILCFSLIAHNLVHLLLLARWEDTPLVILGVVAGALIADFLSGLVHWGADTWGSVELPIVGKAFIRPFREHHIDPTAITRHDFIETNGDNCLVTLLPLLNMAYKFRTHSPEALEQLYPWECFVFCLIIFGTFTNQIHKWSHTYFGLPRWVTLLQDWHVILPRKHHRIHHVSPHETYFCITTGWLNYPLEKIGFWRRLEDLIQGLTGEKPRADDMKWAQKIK
UniProt P42166: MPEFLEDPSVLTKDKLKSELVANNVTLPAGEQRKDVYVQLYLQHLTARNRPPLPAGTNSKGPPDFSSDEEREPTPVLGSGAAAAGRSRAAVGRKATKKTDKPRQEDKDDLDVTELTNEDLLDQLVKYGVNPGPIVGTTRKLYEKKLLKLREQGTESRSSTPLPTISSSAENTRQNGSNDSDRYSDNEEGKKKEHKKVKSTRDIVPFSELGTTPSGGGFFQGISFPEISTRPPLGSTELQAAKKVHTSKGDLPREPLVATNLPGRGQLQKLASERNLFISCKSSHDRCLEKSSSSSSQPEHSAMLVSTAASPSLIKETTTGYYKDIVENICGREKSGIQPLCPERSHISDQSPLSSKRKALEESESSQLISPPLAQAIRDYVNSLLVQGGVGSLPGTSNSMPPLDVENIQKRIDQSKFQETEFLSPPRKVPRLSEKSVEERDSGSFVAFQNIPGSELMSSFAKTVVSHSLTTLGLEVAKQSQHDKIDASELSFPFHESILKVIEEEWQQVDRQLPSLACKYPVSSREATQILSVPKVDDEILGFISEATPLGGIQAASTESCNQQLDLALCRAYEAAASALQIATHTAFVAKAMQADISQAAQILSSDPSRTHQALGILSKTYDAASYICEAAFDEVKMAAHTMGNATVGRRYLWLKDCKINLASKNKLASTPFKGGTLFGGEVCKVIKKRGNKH

Assays:
Assay in all cases: log2 fold change, soluble protein after heating vs DMSO (PISA); higher = thermal stabilisation; K562 cells, 10 uM, 30 min; active = over 0.2 and 3.5 SD of the protein, either way, in both replicates (recomputed)
[1] = compound: CS(=O)(=O)c1ccc(-c2cnc(N)c(C(=O)Nc3ccccc3)n2)cc1
How it was run: (§1)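 Soluble protein was quantified by TMTpro 16plex LC-MS/MS after channel sums were equalised. It was obtained as the supernatant after 21,000xg for 90 min from pooled aliquots of K562 cells (2×10^6 cells/mL, 10 μM compound, 30 min) heated for 3 min across 48°C-58°C and extracted in PBS with 0.5% NP-40 at 4°C. Thermal stability values are relative to control samples and come from duplicates. They are given as log2 fold changes.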

crizotinib = compound: C[C@@H](Oc1cc(-c2cnn(C3CCNCC3)c2)cnc1N)c1c(Cl)ccc(F)c1Cl [crizotinib]
How it was run: as §1

[2] = compound: C[C@@H]1COCCN1C2=NC(=NC(=C2)C3(CC3)S(=O)(=O)C)C4=C5C=CNC5=CC=C4
How it was run: as §1

[3] = compound: C[C@H](C1=CC=C(C=C1)C(=O)NC2=C3C=CNC3=NC=C2)N
How it was run: as §1

duvelisib = compound: C[C@H](Nc1ncnc2nc[nH]c12)c1cc2cccc(Cl)c2c(=O)n1-c1ccccc1 [duvelisib]
How it was run: as §1

gandotinib = compound: Cc1cc(Nc2cc(CN3CCOCC3)c3nc(C)c(Cc4ccc(Cl)cc4F)n3n2)n[nH]1 [gandotinib]
How it was run: as §1

tozasertib = compound: Cc1cc(Nc2cc(N3CCN(C)CC3)nc(Sc3ccc(NC(=O)C4CC4)cc3)n2)n[nH]1 [tozasertib]
How it was run: as §1

[4] = compound: Cc1cc(SCc2sc(-c3ccc(C(F)(F)F)cc3)nc2C)ccc1OCC(=O)O
How it was run: as §1

doramapimod = compound: Cc1ccc(-n2nc(C(C)(C)C)cc2NC(=O)Nc2ccc(OCCN3CCOCC3)c3ccccc23)cc1 [doramapimod]
How it was run: as §1

ispinesib = compound: Cc1ccc(C(=O)N(CCCN)[C@@H](c2nc3cc(Cl)ccc3c(=O)n2Cc2ccccc2)C(C)C)cc1 [ispinesib]
How it was run: as §1

bafetinib = compound: Cc1ccc(NC(=O)c2ccc(CN3CC[C@H](N(C)C)C3)c(C(F)(F)F)c2)cc1Nc1nccc(-c2cncnc2)n1 [bafetinib]
How it was run: as §1

[5] = compound: Cc1cccc(CC(=O)N2CCc3c2ccc(-c2cn(C)c4ncnc(N)c24)c3F)n1
How it was run: as §1

nilotinib = compound: Cc1cn(-c2cc(NC(=O)c3ccc(C)c(Nc4nccc(-c5cccnc5)n4)c3)cc(C(F)(F)F)c2)cn1 [nilotinib]
How it was run: as §1

[6] = compound: Cc1nc(Nc2n[nH]c3c2CN(C(=O)N[C@H](CN(C)C)c2ccccc2)C3(C)C)c2sccc2n1
How it was run: as §1

dasatinib = compound: Cc1nc(Nc2ncc(C(=O)Nc3c(C)cccc3Cl)s2)cc(N2CCN(CCO)CC2)n1 [dasatinib]
How it was run: as §1

[7] = compound: Cc1ncc(-c2ccnc(Nc3ccc(S(C)(=O)=O)cc3)n2)n1C(C)C
How it was run: as §1

[8] = compound: Cn1cc(-c2ccc3c(c2)CCN3C(=O)Cc2cccc(C(F)(F)F)c2)c2c(N)ncnc21
How it was run: as §1

[9] = compound: Cn1cc(-c2ccc3nnc(C(F)(F)c4ccc5ncccc5c4)n3n2)cn1
How it was run: as §1

tipifarnib = compound: Cn1cncc1[C@@](N)(c1ccc(Cl)cc1)c1ccc2c(c1)c(-c1cccc(Cl)c1)cc(=O)n2C [tipifarnib]
How it was run: as §1

mubritinib = compound: FC(F)(F)c1ccc(/C=C/c2nc(COc3ccc(CCCCn4ccnn4)cc3)co2)cc1 [mubritinib]
How it was run: as §1

Measured: log2 fold change

TMPO (UniProt P42167)
inactive: [1] 0.011 | crizotinib -0.032 | [2] 0.065 | [3] -0.018 | duvelisib 0.028 | gandotinib -0.084 | tozasertib 0.01 | [4] 0.021 | doramapimod -0.032 | ispinesib 0.001 | bafetinib -0.04 | [5] 0 | nilotinib 0.011 | [6] -0.035 | dasatinib -0.014 | [7] 0.045 | [8] 0.137 | [9] 0.037 | tipifarnib 0.004 | mubritinib -0.038

TM2D3 (UniProt Q9BRN9)
inactive: [1] 0.074 | crizotinib -0.112 | [2] -0.144 | [3] -0.02 | duvelisib 0.067 | gandotinib -0.004 | tozasertib 0.007 | [4] 0.067 | doramapimod -0.01 | ispinesib -0.063 | bafetinib 0.002 | [5] -0.108 | nilotinib -0.162 | [6] -0.035 | dasatinib 0.052 | [7] -0.014 | [8] -0.132 | [9] -0.014 | tipifarnib 0.133 | mubritinib -0.139

TMLHE isoform 8 (UniProt Q9NVH6)
inactive: [1] 0.033 | crizotinib 0.007 | [2] -0.021 | [3] -0.035 | duvelisib 0.088 | gandotinib 0.003 | tozasertib 0.033 | [4] 0.037 | doramapimod -0.001 | ispinesib -0.042 | bafetinib -0.038 | [5] -0.05 | nilotinib -0.015 | [6] 0.074 | dasatinib -0.065 | [7] 0.023 | [8] 0.147 | [9] -0.006 | tipifarnib 0.069 | mubritinib 0.089

TMEM115 (UniProt Q12893)
inactive: [1] 0.006 | crizotinib 0.053 | [2] -0.05 | [3] -0.035 | duvelisib -0.018 | gandotinib -0.024 | tozasertib -0.061 | [4] -0.03 | doramapimod -0.019 | ispinesib 0.023 | bafetinib -0.084 | [5] 0.019 | nilotinib 0.017 | [6] 0.027 | dasatinib 0.065 | [7] 0.065 | [8] 0.047 | [9] -0.02 | tipifarnib 0.036 | mubritinib -0.032

TMOD2 (UniProt Q9NZR1)
inactive: [1] -0.028 | crizotinib 0.12 | [2] 0.154 | [3] -0.042 | duvelisib 0.106 | gandotinib -0.08 | tozasertib 0.17 | [4] -0.052 | doramapimod 0.027 | ispinesib 0.099 | bafetinib 0.049 | [5] 0.121 | nilotinib 0.1 | [6] 0.014 | dasatinib 0.062 | [7] 0.023 | [8] 0.287 | [9] 0.304 | tipifarnib -0.053 | mubritinib -0.071

TMEM33 (UniProt P57088)
inactive: [1] 0.002 | crizotinib 0.041 | [2] 0.104 | [3] -0.117 | duvelisib 0.031 | gandotinib -0.055 | tozasertib 0.031 | [4] -0.021 | doramapimod -0.032 | ispinesib 0.047 | bafetinib -0.024 | [5] 0.016 | nilotinib -0.001 | [6] 0.008 | dasatinib 0.05 | [7] 0.002 | [8] 0.046 | [9] 0.002 | tipifarnib -0.019 | mubritinib 0.027

TMX3 (UniProt Q96JJ7)
inactive: [1] -0.046 | crizotinib 0.04 | [2] -0.011 | [3] 0.093 | duvelisib 0.045 | gandotinib -0.001 | tozasertib -0.008 | [4] 0 | doramapimod 0.025 | ispinesib 0.056 | bafetinib -0.04 | [5] -0.073 | nilotinib -0.02 | [6] 0.012 | dasatinib 0.036 | [7] -0.031 | [8] -0.029 | [9] 0.012 | tipifarnib 0.026 | mubritinib -0.011

TMEM209 (UniProt Q96SK2)
inactive: [1] 0.074 | crizotinib -0.062 | [2] 0.061 | [3] 0 | duvelisib 0.01 | gandotinib -0.087 | tozasertib -0.031 | [4] 0.002 | doramapimod 0.032 | ispinesib -0.059 | bafetinib -0.042 | [5] 0.004 | nilotinib -0.02 | [6] -0.029 | dasatinib -0.08 | [7] 0.065 | [8] 0.029 | [9] -0.077 | tipifarnib -0.006 | mubritinib 0.005

TMEM68 (UniProt Q96MH6)
inactive: [1] 0.014 | crizotinib 0.095 | [2] 0.041 | [3] -0.021 | duvelisib 0.023 | gandotinib -0.033 | tozasertib -0.021 | [4] -0.049 | doramapimod 0 | ispinesib -0.025 | bafetinib -0.077 | [5] -0.018 | nilotinib -0.014 | [6] -0.017 | dasatinib -0.076 | [7] -0.015 | [8] 0.06 | [9] 0.034 | tipifarnib 0.058 | mubritinib 0.067

TMX2 (UniProt Q9Y320)
inactive: [1] 0.006 | crizotinib 0.014 | [2] 0.038 | [3] -0.037 | duvelisib -0.028 | gandotinib -0.061 | tozasertib -0.047 | [4] 0.015 | doramapimod -0.002 | ispinesib -0.082 | bafetinib -0.086 | [5] -0.027 | nilotinib -0.021 | [6] 0.016 | dasatinib -0.002 | [7] -0.037 | [8] 0.026 | [9] 0.008 | tipifarnib 0.045 | mubritinib 0.04

TMEM259 (UniProt Q4ZIN3)
inactive: [1] 0.008 | crizotinib 0.026 | [2] 0.016 | [3] -0.005 | duvelisib 0.047 | gandotinib 0.067 | tozasertib 0.037 | [4] 0.066 | doramapimod 0.07 | ispinesib -0.059 | bafetinib -0.141 | [5] -0.006 | nilotinib -0.074 | [6] -0.002 | dasatinib -0.014 | [7] -0.015 | [8] 0.025 | [9] 0.02 | tipifarnib 0.038 | mubritinib -0.019

TMED5 (UniProt Q9Y3A6)
inactive: [1] 0.006 | crizotinib -0.055 | [2] 0.038 | [3] 0.071 | duvelisib 0.054 | gandotinib -0.121 | tozasertib 0.01 | [4] 0.01 | doramapimod 0.032 | ispinesib -0.018 | bafetinib 0.004 | [5] -0.024 | nilotinib -0.051 | [6] 0.033 | dasatinib 0.034 | [7] 0.019 | [8] 0.029 | [9] 0.034 | tipifarnib -0.023 | mubritinib -0.035

TMEM43 (UniProt Q9BTV4)
inactive: [1] 0.008 | crizotinib 0.031 | [2] -0.065 | [3] 0.048 | duvelisib 0.025 | gandotinib 0.127 | tozasertib 0.013 | [4] 0.022 | doramapimod 0.048 | ispinesib -0.136 | bafetinib -0.029 | [5] 0.019 | nilotinib 0.041 | [6] 0.029 | dasatinib 0.05 | [7] -0.001 | [8] -0.074 | [9] -0.008 | tipifarnib 0.064 | mubritinib -0.059

TMCO1 (UniProt Q9UM00)
inactive: [1] -0.016 | crizotinib -0.088 | [2] 0.081 | [3] -0.136 | duvelisib 0.024 | gandotinib -0.166 | tozasertib -0.021 | [4] -0.029 | doramapimod 0.002 | ispinesib -0.229 | bafetinib -0.141 | [5] -0.088 | nilotinib -0.028 | [6] -0.01 | dasatinib -0.008 | [7] 0.037 | [8] 0.088 | [9] 0.089 | tipifarnib 0.082 | mubritinib 0.038

TMEM189 (UniProt A5PLL7)
inactive: [1] 0.01 | crizotinib 0.009 | [2] -0.02 | [3] -0.001 | duvelisib 0.137 | gandotinib -0.034 | tozasertib 0.046 | [4] -0.035 | doramapimod -0.08 | ispinesib 0.017 | bafetinib 0.031 | [5] 0.139 | nilotinib -0.075 | [6] 0.014 | dasatinib 0.094 | [7] -0.054 | [8] -0.025 | [9] 0.065 | tipifarnib -0.079 | mubritinib -0.043

TMPO (UniProt P42166)
inactive: [1] 0.032 | crizotinib -0.005 | [2] 0.022 | [3] 0.187 | duvelisib -0.055 | gandotinib -0.079 | tozasertib -0.059 | [4] -0.013 | doramapimod -0.019 | ispinesib -0.046 | bafetinib -0.066 | [5] 0.024 | nilotinib 0.001 | [6] -0.068 | dasatinib -0.099 | [7] 0.004 | [8] 0.03 | [9] -0.037 | tipifarnib 0.006 | mubritinib 0.054
